Numbering of substitutions follows the chain as printed. Results are given in words; binding and its absence hold for the method and conditions named. Some entries that bind do so weakly or less than the wild type.
B1: 2.74.15.hAb8 (antibody, V domains shown)
VH: QVQLQESGPGLVKPSETLSLTCTVSGYSITSGYIWHWIRQPPGKGLEWIGYIHYSGTTDFNPSLESRVTISVDTSKNQFSLKLSSVTAADTAVYYCAREGRSYGGFAYWGQGTLVTVSS
VL: DIQMTQSPSSLSASVGDRVTITCKASQSVSNGVAWYQQKPGKVPKLLIYYASNRFTGVPSRFSGSGSGTDFTLTISSLQPEDVATYYCQQDYSSPFTFGQGTKLEIK
notes: Humanized antibody with a human constant region of IgG4 isotype
B2: 2.74.15.hAb4 (antibody, V domains shown)
VH: B1 VH with S119A
VL: B1 VL with D1S, I2F, Q3V, Q100S, K103E
notes: as for B1
B3: 2.74.15.hAb5 (antibody, V domains shown)
VH: B1 VH with S25T, P42A
VL: B1 VL with M4L, S10F, V43A, D70E, V83F
notes: as for B1
B4: 2.74.15.hAb6 (antibody, V domains shown)
VH: B1 VH with S25T, P42A
VL: B1 VL
notes: as for B1
B5: 2.74.15.hAb7 (antibody, V domains shown)
VH: B1 VH
VL: B1 VL with M4L, S10F, V43A, D70E, V83F
notes: as for B1

Target: T1, cynomolgus monkey PD-L1 (cynomolgus monkey, UniProt G7PSE7 19-238)
T1 construct: also called cyno PD-L1
Experiment: ELISA or FACS

| Binder | binding |
| --- | --- |
| B1 | binds |
| B2 | binds |
| B3 | binds |
| B4 | binds |
| B5 | binds |

Target: T1, cynomolgus monkey PD-L1
Experiment: ELISA, antigen coated on plate

| Binder | binding |
| --- | --- |
| B1 | binds |
| B2 | binds |
| B3 | binds |
| B4 | binds |
| B5 | binds |

Source: patent US20180162944A1 (WUXI BIOLOGICS SHANGHAI, published 2018)
